Test results as given in the supplement of paper PMC6411743.
± gives the standard deviation of the averaged measurements. The list shows a part of the results, in another mix than the full data.

Sequences of proteins named here, by UniProt entry; tags and fusion partners are left off. A change or cut given only in a name is not applied to a line headed by its entry.
UniProt O14828: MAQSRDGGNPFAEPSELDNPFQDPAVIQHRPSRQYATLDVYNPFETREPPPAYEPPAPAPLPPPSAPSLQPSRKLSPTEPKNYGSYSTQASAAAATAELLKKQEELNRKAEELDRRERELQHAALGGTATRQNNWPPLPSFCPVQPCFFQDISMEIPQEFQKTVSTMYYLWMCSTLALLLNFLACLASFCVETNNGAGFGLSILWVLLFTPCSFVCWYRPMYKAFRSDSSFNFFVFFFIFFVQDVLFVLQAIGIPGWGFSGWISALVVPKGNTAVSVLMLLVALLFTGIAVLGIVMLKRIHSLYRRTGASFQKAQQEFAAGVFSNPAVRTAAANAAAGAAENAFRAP
UniProt O00221: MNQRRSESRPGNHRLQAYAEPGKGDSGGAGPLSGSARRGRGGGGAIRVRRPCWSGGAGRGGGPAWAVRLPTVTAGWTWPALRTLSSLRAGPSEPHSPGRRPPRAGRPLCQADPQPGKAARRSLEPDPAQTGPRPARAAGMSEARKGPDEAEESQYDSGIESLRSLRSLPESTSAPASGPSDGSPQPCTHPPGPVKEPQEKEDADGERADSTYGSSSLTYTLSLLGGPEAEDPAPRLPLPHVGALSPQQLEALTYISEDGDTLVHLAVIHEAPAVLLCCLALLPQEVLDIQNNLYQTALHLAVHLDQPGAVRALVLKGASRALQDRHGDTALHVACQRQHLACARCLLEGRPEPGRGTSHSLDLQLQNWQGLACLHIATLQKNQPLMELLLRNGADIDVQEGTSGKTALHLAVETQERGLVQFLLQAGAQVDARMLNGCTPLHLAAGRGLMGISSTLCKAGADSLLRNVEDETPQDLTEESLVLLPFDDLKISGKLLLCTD
UniProt P27797, whole entry: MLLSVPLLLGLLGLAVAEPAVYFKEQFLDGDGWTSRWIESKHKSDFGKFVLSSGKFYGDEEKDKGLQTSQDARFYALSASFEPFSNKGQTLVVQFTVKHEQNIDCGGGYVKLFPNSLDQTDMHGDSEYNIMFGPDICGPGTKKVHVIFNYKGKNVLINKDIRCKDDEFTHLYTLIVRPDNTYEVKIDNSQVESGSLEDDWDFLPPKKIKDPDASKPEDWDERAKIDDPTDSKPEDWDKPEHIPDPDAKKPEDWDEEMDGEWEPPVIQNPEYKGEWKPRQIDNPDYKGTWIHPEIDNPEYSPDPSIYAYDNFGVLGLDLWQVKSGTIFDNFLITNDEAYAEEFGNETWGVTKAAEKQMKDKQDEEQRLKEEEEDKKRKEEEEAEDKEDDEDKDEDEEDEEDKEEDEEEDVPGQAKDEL
UniProt Q9UBQ5, whole entry: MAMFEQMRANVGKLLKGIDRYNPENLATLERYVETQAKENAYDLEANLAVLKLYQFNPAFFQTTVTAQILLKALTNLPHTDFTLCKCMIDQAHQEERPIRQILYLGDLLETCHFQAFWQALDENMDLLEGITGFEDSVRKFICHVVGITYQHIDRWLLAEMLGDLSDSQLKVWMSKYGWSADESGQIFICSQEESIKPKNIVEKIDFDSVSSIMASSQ
UniProt O00410: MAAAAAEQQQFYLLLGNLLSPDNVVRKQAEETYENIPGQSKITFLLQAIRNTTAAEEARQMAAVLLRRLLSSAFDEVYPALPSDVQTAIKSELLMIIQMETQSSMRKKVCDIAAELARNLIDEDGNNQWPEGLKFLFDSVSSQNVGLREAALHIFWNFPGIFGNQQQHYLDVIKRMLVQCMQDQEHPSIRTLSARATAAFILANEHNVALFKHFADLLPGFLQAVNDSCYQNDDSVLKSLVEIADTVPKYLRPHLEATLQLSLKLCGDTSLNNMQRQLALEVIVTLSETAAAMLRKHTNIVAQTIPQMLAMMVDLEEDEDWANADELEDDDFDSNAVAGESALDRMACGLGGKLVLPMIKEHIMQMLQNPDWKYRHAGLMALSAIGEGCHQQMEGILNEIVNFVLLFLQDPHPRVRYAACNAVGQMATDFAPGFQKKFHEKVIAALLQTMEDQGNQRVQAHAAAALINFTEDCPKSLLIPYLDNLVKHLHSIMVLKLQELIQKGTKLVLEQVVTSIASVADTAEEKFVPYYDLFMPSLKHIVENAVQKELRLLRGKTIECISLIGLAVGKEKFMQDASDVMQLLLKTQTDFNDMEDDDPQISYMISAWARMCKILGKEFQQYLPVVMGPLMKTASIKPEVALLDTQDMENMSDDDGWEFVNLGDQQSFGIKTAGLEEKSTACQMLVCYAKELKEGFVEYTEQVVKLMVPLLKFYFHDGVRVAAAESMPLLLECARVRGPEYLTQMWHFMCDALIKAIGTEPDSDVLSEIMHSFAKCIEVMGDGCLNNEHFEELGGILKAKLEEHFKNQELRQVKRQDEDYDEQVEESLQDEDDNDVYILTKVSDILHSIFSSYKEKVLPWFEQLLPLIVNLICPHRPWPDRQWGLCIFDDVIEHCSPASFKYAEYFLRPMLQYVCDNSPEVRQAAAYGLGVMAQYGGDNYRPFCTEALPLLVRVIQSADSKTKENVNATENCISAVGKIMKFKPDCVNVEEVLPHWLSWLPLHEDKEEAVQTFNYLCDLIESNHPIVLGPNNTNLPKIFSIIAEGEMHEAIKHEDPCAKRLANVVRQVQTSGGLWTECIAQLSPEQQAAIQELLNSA
UniProt O00401, whole entry: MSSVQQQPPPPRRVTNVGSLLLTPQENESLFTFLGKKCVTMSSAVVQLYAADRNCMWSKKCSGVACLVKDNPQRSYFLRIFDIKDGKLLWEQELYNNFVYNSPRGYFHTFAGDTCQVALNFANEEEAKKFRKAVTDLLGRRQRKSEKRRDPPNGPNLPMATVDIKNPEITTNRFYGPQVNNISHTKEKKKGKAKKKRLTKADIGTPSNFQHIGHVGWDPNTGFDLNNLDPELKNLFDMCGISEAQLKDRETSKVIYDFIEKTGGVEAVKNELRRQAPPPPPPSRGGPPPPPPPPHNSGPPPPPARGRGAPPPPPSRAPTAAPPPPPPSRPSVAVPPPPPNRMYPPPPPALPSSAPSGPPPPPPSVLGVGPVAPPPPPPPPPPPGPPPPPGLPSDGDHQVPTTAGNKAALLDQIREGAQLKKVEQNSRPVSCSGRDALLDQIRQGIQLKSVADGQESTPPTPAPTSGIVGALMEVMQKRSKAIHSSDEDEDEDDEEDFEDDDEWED
UniProt O43683: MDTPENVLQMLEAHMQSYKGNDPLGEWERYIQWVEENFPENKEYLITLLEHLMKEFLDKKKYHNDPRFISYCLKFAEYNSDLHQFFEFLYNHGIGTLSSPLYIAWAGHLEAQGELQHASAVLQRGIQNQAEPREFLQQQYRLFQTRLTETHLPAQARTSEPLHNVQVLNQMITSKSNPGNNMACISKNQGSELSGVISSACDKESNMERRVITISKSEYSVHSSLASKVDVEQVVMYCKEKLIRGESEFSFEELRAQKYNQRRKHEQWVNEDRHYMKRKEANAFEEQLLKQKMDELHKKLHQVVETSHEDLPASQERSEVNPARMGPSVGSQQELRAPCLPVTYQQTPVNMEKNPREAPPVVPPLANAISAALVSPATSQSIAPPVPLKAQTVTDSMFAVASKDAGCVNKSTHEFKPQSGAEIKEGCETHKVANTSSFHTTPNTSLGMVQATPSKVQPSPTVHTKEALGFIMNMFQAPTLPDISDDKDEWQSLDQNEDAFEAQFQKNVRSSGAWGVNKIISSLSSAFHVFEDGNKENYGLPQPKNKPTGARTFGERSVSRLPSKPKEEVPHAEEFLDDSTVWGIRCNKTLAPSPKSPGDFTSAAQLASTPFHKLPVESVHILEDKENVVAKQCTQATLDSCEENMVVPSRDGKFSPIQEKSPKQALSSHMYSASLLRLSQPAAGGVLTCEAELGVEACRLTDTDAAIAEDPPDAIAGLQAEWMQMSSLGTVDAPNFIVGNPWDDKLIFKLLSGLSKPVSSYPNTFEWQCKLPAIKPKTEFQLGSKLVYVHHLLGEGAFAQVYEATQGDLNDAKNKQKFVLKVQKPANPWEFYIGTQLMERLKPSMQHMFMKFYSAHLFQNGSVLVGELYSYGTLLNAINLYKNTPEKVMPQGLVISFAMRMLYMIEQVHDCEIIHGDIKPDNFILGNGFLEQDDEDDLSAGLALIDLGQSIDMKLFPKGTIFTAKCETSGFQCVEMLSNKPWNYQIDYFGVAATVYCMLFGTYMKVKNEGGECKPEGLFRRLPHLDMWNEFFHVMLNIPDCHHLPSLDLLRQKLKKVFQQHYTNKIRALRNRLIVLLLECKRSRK
UniProt O00767: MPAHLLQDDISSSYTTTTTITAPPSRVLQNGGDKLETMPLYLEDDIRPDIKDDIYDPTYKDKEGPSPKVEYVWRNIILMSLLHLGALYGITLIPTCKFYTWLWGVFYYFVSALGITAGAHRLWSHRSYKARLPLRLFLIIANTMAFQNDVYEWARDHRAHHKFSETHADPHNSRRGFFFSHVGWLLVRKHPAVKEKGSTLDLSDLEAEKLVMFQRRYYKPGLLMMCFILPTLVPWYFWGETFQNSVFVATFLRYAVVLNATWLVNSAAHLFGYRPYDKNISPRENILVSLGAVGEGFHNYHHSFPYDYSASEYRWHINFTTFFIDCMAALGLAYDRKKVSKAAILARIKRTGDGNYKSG
UniProt Q16543: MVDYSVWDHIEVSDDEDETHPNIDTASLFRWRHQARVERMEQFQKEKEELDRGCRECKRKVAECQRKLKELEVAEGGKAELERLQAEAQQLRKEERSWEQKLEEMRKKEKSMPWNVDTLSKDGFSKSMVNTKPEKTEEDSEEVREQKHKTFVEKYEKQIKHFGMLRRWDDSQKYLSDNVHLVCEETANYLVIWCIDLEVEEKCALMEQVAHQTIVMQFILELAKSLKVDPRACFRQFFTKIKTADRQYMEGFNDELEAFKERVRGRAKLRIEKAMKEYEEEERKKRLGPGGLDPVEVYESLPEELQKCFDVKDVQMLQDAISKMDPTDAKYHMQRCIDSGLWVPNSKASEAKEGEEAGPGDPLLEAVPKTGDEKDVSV
UniProt O43896: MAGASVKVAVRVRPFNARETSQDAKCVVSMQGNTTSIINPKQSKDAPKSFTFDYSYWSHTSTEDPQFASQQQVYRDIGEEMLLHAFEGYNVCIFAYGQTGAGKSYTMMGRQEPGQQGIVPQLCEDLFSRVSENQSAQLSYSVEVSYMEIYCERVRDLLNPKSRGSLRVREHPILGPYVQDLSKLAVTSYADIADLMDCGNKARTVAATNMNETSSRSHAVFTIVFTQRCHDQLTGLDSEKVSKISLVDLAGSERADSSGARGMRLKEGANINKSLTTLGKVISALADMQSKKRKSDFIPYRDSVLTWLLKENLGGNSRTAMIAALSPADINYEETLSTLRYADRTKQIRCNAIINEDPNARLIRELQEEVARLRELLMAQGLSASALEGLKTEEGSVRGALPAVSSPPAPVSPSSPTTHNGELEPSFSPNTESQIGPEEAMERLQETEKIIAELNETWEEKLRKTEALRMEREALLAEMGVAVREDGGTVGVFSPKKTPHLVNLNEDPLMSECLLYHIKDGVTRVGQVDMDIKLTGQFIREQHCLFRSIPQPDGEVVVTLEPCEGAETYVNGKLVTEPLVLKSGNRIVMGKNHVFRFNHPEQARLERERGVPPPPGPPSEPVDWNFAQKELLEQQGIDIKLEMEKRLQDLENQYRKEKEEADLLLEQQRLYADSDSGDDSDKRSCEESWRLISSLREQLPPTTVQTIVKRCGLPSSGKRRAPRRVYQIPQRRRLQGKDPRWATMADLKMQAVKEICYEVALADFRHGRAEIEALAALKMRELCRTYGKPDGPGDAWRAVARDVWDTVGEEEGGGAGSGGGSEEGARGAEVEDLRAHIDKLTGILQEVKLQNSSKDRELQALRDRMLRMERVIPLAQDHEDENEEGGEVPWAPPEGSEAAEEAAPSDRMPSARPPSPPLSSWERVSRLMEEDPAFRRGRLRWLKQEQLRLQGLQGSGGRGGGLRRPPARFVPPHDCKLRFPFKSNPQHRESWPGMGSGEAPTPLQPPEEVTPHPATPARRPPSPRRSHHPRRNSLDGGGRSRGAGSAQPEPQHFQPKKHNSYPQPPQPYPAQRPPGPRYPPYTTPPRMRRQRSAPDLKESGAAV
UniProt O14530: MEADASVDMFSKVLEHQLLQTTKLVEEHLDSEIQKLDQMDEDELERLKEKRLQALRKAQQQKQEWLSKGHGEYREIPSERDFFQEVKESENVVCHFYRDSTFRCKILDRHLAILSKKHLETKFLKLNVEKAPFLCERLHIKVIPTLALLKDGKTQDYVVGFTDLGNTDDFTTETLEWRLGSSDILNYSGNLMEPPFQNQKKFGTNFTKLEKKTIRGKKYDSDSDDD
UniProt O15126: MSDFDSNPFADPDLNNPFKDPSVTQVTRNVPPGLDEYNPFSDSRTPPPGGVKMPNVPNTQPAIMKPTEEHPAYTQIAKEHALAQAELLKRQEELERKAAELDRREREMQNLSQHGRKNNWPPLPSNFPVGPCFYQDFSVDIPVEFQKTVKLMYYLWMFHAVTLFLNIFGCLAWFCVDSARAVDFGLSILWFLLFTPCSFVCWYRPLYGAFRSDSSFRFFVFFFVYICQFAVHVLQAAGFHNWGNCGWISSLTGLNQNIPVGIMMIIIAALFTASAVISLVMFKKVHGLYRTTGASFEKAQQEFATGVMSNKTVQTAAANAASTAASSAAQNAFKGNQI

Compound: Nc1ncnc2c1ncn2[C@@H]1O[C@H](COP(=O)(O)OP(=O)(O)NP(=O)(O)O)[C@@H](O)[C@H]1O [adenylyl imidodiphosphate]
Assay: NP40-soluble protein abundance relative to vehicle (solubility fold change) (ratio); higher = more soluble protein in presence of AMP-PNP
Outline: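 In three independent experiments, Jurkat crude lysate made by Dounce homogenisation was treated for 10 min at room temperature and then 3 min at 37 °C with eight concentrations ranging from 0.1 to 10 mM. It was then solubilised with 0.8% NP40 plus benzonase for 60 min at 4 °C and ultracentrifuged. The supernatant was TMT-labelled for LC-MS/MS, and each value is the fold change against the detergent-processed vehicle for the same replicate, using vsn-normalised intensities.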

Target	NP40-soluble protein abundance (concentration: 1mM)	NP40-soluble protein abundance (concentration: 2mM)	NP40-soluble protein abundance (concentration: 4mM)	NP40-soluble protein abundance (concentration: 6mM)	NP40-soluble protein abundance (concentration: 8mM)	NP40-soluble protein abundance (concentration: 10mM)
SCAMP3 (UniProt O14828)	1.05 ± 0.036	1.08 ± 0.059	1.03 ± 0.032	1.01 ± 0.035	0.991 ± 0.048	1 ± 0.069
UniProt O15439 and related entries	0.976 ± 0.074	0.994 ± 0.053	1 ± 0.072	0.981 ± 0.034	0.963 ± 0.02	0.974 ± 0.032
M0R2S1 and related entries (UniProt P62987)	0.966 ± 0.12	0.954 ± 0.054	0.912 ± 0.08	0.959 ± 0.082	0.948 ± 0.022	0.94 ± 0.02
EXOC5 (UniProt O00471)	0.9819 ± 0.0085	1.01 ± 0.02	0.989 ± 0.013	0.983 ± 0.025	0.974 ± 0.017	0.983 ± 0.02
M0QY01 and related entries (UniProt Q9UBC2)	1.02 ± 0.015	1.08 ± 0.06	1.04 ± 0.026	0.989 ± 0.035	0.953 ± 0.015	0.967 ± 0.025
ZBTB43 (UniProt O43298)	0.998 ± 0.019	0.99 ± 0.015	0.991 ± 0.012	1.01 ± 0.05	1 ± 0.069	0.979 ± 0.064
PGRMC1 (UniProt O00264)	0.945 ± 0.048	1 ± 0.017	0.947 ± 0.021	0.938 ± 0.052	0.967 ± 0.038	0.943 ± 0.063
M0R0H0 and related entries (UniProt P55899)	1 ± 0.015	1.01 ± 0.021	0.9995 ± 0.0078	1 ± 0.014	1.007 ± 0.01	0.999 ± 0.018
UniProt O15085 and related entries	1.01 ± 0.059	1.02 ± 0.015	0.998 ± 0.024	1.006 ± 0.008	1 ± 0.012	0.9835 ± 0.0066
UniProt O15400 and related entries	1.01 ± 0.059	1.04 ± 0.1	0.993 ± 0.06	0.992 ± 0.035	0.976 ± 0.039	0.957 ± 0.038
UniProt O00221 and related entries	1.044 ± 0.01	1.07 ± 0.03	1.05 ± 0.049	0.999 ± 0.014	1.01 ± 0.022	1.02 ± 0.045
NDC80 (UniProt O14777)	0.997 ± 0.017	1.03 ± 0.05	1.01 ± 0.021	0.9821 ± 0.0024	0.969 ± 0.025	0.986 ± 0.031
UniProt O14733 and related entries	1.06 ± 0.023	1.02 ± 0.082	1.06 ± 0.059	1.02 ± 0.018	1.03 ± 0.067	1.06 ± 0.061
OPLAH (UniProt O14841)	0.989 ± 0.026	0.988 ± 0.014	1.01 ± 0.021	0.9972 ± 0.0098	0.982 ± 0.018	0.997 ± 0.017
TIMM44 (UniProt O43615)	0.982 ± 0.019	0.981 ± 0.023	0.947 ± 0.011	0.9596 ± 0.0093	0.947 ± 0.023	0.923 ± 0.014
RFXANK (UniProt O14593)	1.01 ± 0.045	0.989 ± 0.03	0.99 ± 0.022	0.9929 ± 0.0085	0.989 ± 0.01	0.988 ± 0.025
UniProt O14646 and related entries	1.07 ± 0.052	1.15 ± 0.023	1.23 ± 0.077	1.33 ± 0.14	1.41 ± 0.11	1.49 ± 0.15
UniProt O15234 and related entries	1.06 ± 0.021	1.08 ± 0.032	1.04 ± 0.034	1 ± 0.04	0.981 ± 0.023	0.965 ± 0.014
K7EJB9 and related entries (UniProt P27797)	1.04 ± 0.025	1.1 ± 0.11	1.01 ± 0.053	1.02 ± 0.011	0.978 ± 0.029	1.02 ± 0.079
K7ERF1 and related entries (UniProt Q9UBQ5)	1 ± 0.018	1.02 ± 0.045	1.02 ± 0.063	1.15 ± 0.066	1.15 ± 0.085	1.26 ± 0.091

Copied from the list:
UniProt O15439 and related entries | NP40-soluble protein abundance (concentration: 8mM): 0.963 ± 0.02
M0R2S1 and related entries (UniProt P62987) | NP40-soluble protein abundance (concentration: 6mM): 0.959 ± 0.082
K7ERF1 and related entries (UniProt Q9UBQ5) | NP40-soluble protein abundance (concentration: 6mM): 1.15 ± 0.066
RFXANK (UniProt O14593) | NP40-soluble protein abundance (concentration: 10mM): 0.988 ± 0.025
OPLAH (UniProt O14841) | NP40-soluble protein abundance (concentration: 8mM): 0.982 ± 0.018

Next part:

Target	NP40-soluble protein abundance (concentration: 1mM)	NP40-soluble protein abundance (concentration: 2mM)	NP40-soluble protein abundance (concentration: 4mM)	NP40-soluble protein abundance (concentration: 6mM)	NP40-soluble protein abundance (concentration: 8mM)	NP40-soluble protein abundance (concentration: 10mM)
M0QWZ7 and related entries (UniProt Q9NP81)	1.01 ± 0.018	0.982 ± 0.029	0.996 ± 0.025	0.966 ± 0.013	1.016 ± 0.0045	0.983 ± 0.015
PSMD12 (UniProt O00232)	0.924 ± 0.026	0.894 ± 0.04	0.932 ± 0.088	0.985 ± 0.059	0.986 ± 0.076	1.01 ± 0.13
UniProt O43822 and related entries	0.9824 ± 0.0079	1.01 ± 0.035	0.9922 ± 0.0037	0.992 ± 0.015	0.975 ± 0.029	0.985 ± 0.011
K7ELC7 and related entries (UniProt P61353)	1.02 ± 0.033	0.979 ± 0.044	0.966 ± 0.11	0.924 ± 0.086	0.907 ± 0.094	0.953 ± 0.14
POLR1C (UniProt O15160)	1.02 ± 0.015	0.968 ± 0.089	1.01 ± 0.03	0.991 ± 0.041	1.02 ± 0.041	0.993 ± 0.04
K7ERI7 and related entries (UniProt P35268)	1.02 ± 0.038	1.01 ± 0.044	0.982 ± 0.034	1.02 ± 0.014	0.989 ± 0.044	1.04 ± 0.021
PPIH (UniProt O43447)	0.967 ± 0.053	0.936 ± 0.035	0.991 ± 0.071	1.02 ± 0.045	1.04 ± 0.044	1.07 ± 0.09
PDCD5 (UniProt O14737)	0.997 ± 0.055	1.02 ± 0.1	0.967 ± 0.04	0.951 ± 0.11	0.908 ± 0.067	0.969 ± 0.04
UniProt O15066 and related entries	1.022 ± 0.0017	1.06 ± 0.054	1.05 ± 0.047	1 ± 0.018	1.01 ± 0.025	1.01 ± 0.031
UniProt O00410 and related entries	0.977 ± 0.019	0.974 ± 0.025	0.956 ± 0.043	0.987 ± 0.048	0.976 ± 0.055	0.955 ± 0.059
K7ELQ9 and related entries (UniProt Q6UW68)	0.998 ± 0.016	1.02 ± 0.031	0.996 ± 0.03	0.9955 ± 0.0067	0.996 ± 0.015	1.01 ± 0.028
WASL (UniProt O00401)	0.987 ± 0.021	1.01 ± 0.016	0.99 ± 0.033	1.001 ± 0.0023	0.963 ± 0.017	0.9623 ± 0.0052
K7ESQ0 and related entries (UniProt Q9H6Z4)	0.9985 ± 0.0052	1.04 ± 0.057	1.008 ± 0.0041	1.01 ± 0.031	0.997 ± 0.016	1.02 ± 0.024
UniProt O43829	1.04 ± 0.018	1.08 ± 0.035	1.05 ± 0.035	1.041 ± 0.0073	1.02 ± 0.045	1.06 ± 0.05
UniProt O43251-6|O43251-8	0.989 ± 0.032	0.974 ± 0.039	0.984 ± 0.018	0.98 ± 0.015	0.972 ± 0.011	0.973 ± 0.032
UniProt O15379 and related entries	0.979 ± 0.027	0.942 ± 0.077	0.939 ± 0.027	0.935 ± 0.013	0.918 ± 0.012	0.9441 ± 0.0079
UniProt O43683 and related entries	0.984 ± 0.015	0.978 ± 0.01	0.989 ± 0.015	0.953 ± 0.018	0.934 ± 0.037	0.955 ± 0.024
DHX15 (UniProt O43143)	1.1 ± 0.034	1.06 ± 0.079	1.14 ± 0.074	1.17 ± 0.053	1.17 ± 0.017	1.17 ± 0.045
SCD (UniProt O00767)	0.966 ± 0.063	0.917 ± 0.06	0.931 ± 0.034	0.946 ± 0.069	0.963 ± 0.06	0.944 ± 0.054
UBE2L6 (UniProt O14933)	0.953 ± 0.04	1.019 ± 0.0083	0.933 ± 0.074	0.928 ± 0.042	0.923 ± 0.036	0.911 ± 0.098

Target	NP40-soluble protein abundance (concentration: 1mM)	NP40-soluble protein abundance (concentration: 2mM)	NP40-soluble protein abundance (concentration: 4mM)	NP40-soluble protein abundance (concentration: 6mM)	NP40-soluble protein abundance (concentration: 8mM)	NP40-soluble protein abundance (concentration: 10mM)
UniProt O14965 and related entries	1.048 ± 0.0065	1.07 ± 0.037	1.05 ± 0.024	1.05 ± 0.017	1.06 ± 0.018	1.08 ± 0.062
PIK3CD (UniProt O00329)	0.979 ± 0.039	0.933 ± 0.042	0.952 ± 0.031	0.935 ± 0.019	0.966 ± 0.012	0.914 ± 0.03
STX6 (UniProt O43752)	1.01 ± 0.025	1.04 ± 0.028	1 ± 0.05	0.992 ± 0.027	0.973 ± 0.034	0.979 ± 0.019
K7EL68 and related entries (UniProt Q16543)	1.04 ± 0.028	1.07 ± 0.09	0.995 ± 0.042	1.011 ± 0.009	0.985 ± 0.0074	1.02 ± 0.034
PSMD11 (UniProt O00231)	0.925 ± 0.025	0.891 ± 0.045	0.881 ± 0.048	0.866 ± 0.092	0.867 ± 0.084	0.845 ± 0.087
K7EM18 and related entries (UniProt P41567)	1.02 ± 0.035	1.07 ± 0.048	1.08 ± 0.052	1.11 ± 0.015	1.16 ± 0.037	1.2 ± 0.064
UQCRQ (UniProt O14949)	0.928 ± 0.078	0.99 ± 0.017	0.91 ± 0.057	0.92 ± 0.08	0.919 ± 0.028	0.897 ± 0.071
NDUFAB1 (UniProt O14561)	0.9506 ± 0.0093	1.01 ± 0.1	0.957 ± 0.018	0.907 ± 0.051	0.885 ± 0.022	0.912 ± 0.037
UniProt O43148 and related entries	0.996 ± 0.013	1.01 ± 0.011	0.992 ± 0.017	0.992 ± 0.027	0.985 ± 0.029	1 ± 0.033
UniProt O15258 and related entries	0.995 ± 0.073	0.972 ± 0.022	1.03 ± 0.051	1.04 ± 0.12	1.12 ± 0.082	1.04 ± 0.05
UniProt O15111	1.02 ± 0.019	0.977 ± 0.058	1.01 ± 0.035	0.993 ± 0.03	0.997 ± 0.013	1.02 ± 0.011
KIF1C (UniProt O43896)	0.973 ± 0.016	0.965 ± 0.0051	0.9798 ± 0.0017	0.953 ± 0.011	0.9604 ± 0.0079	0.992 ± 0.019
TXNDC9 (UniProt O14530)	0.959 ± 0.097	0.971 ± 0.083	0.935 ± 0.093	0.978 ± 0.12	0.93 ± 0.096	0.936 ± 0.18
SCAMP1 (UniProt O15126)	1.03 ± 0.043	1.09 ± 0.044	1.03 ± 0.059	1.01 ± 0.031	0.992 ± 0.029	1.01 ± 0.073
K7EJP7 and related entries (UniProt Q7Z4V5)	1.04 ± 0.034	1.1 ± 0.12	1.07 ± 0.012	1.12 ± 0.053	1.12 ± 0.066	1.19 ± 0.032
UniProt O14647 and related entries	1.08 ± 0.011	1.12 ± 0.025	1.17 ± 0.04	1.23 ± 0.048	1.26 ± 0.051	1.32 ± 0.073
CBX4 (UniProt O00257)	1.01 ± 0.02	1.01 ± 0.021	1.01 ± 0.022	1 ± 0.027	1.02 ± 0.013	1.08 ± 0.031
K7EK78 and related entries (UniProt Q86Y39+K7EQ77+K7EP35+K7EMT4+K7EK78)	0.958 ± 0.013	0.963 ± 0.019	0.987 ± 0.032	1 ± 0.044	1.02 ± 0.019	1.01 ± 0.032
PPM1G (UniProt O15355)	1.03 ± 0.021	1.11 ± 0.1	1 ± 0.04	0.996 ± 0.026	0.957 ± 0.024	0.984 ± 0.053
PFAS (UniProt O15067)	0.99 ± 0.013	0.948 ± 0.063	0.9737 ± 0.0096	0.967 ± 0.024	0.959 ± 0.029	0.944 ± 0.032
